Test results: patent US20260248972A1 (priority 2022, published 2026)

Experiment: general procedure: Fmoc solid-phase peptide synthesis; Wang resin (loading 1.1 mmol/g) for C-terminal acid peptides; Rink Amide-MBHA; DIC/DMAP (first residue loading)
Conditions: whole synthesis, 214 nm, scale of the general procedure 5.0 mmol

Substance	final HPLC purity [%]	final HPLC purity (one disulfide bridge) [%]
(Z360)-gE-gE-OEG-OEG-K(DOTAGA)-OEG-OEG-f[CYwKTC]T-OH	87.5	
DOT A-K(-OEG-OEG-Glu-Z360)-OEG-f[CYwKTC]T-OH		100
DOTA-G-G-K(Z360)-f[CYwKTC]T-OH	98.8	
DOTAGA-K(-Glu-Z360)-OEG-f[CYwKTC]T-OH		96
DOTA-G-S-K(Z360)-G-S-f[CYwKTC]T-OH	95.6	
DOTA-K(Z360)-Glu-gGlu-OEG-OEG-f[CYwKTC]T-OH		100
DOTAGA-K(-Glu-Z360)-Ahx-f[CYwKTC]T-OH		94
(Z360)-E-gE-OEG-gE-K(DOTA)-OEG-f[CYwKTC]T-OH	97.4	
DOTA-e-e-e-e-e-e-Ala-Tyr-Gly-Trp-Nle-Asp-Phe-NH2	95	
DOTAGA-K(-Glu-Z360)-Aoc-Aoc-f[CYwKTC]T-OH		100
DOTA-K(Z360)-G-S-G-f[CYwKTC]T-OH	98.9	
Ac-Tyr-Gly-e-e-e-e-e-e-AYGW-NIe-DF-NH2	94.6	
DOTA-K(-OEG-HGlu-Dap7Z360)-OEG-f[CYwKTC]T-OH		100
DOTA-K(-OEG-gGlu-Ser-Z360)-OEG-f[CYwKTC]T-OH		100
DOTA-K(Z360)-gGlu-OEG-OEG-f[CYwKTC]T-OH		100
DOTAGA-K(-Glu-Z360)-Ahx-Ahx-f[CYwKTC]T-OH		100
DOTA-gE-gE-gE-OEG-Lys(-gE-G-Z360)-OEG-f[CYwKTC]T-OH		>99.0
DOTA-Aoc-K(Z360)-f[CYwKTC]T-OH		96.5
DO TA-e-e-e-e-e-e-AYGW-Nle-DF-NH2	95.5	
DOTA-K(-Glu-Z360)-Ahx-f[CYwKTC]T-OH		96
DOTA-K(-OEG-OEG-Cbp-Z360)-OEG-f[CYwKTC]T-OH		98
DOTAGA-K(-Glu-Z360)-f[CYwKTC]T-OH		97
DOTA-K(-OEG-His-Glu-Z360)-OEG-f[CYwKTC]T-OH		100
(Z360)-gE-gE-OEG-K(DOTAGA)-OEG-f[CYwKTC]T-OH	87.1	
